# Source: article PMC7819943, “Rice protein-binding microarrays: a tool to detect cis-acting elements near promoter regions in rice”
# The list shows a part of the results.
# Molecular target: T1, OsSMF1 (Oryza sativa, UniProt Q6ZLB0 1-436)
# T1 sequence: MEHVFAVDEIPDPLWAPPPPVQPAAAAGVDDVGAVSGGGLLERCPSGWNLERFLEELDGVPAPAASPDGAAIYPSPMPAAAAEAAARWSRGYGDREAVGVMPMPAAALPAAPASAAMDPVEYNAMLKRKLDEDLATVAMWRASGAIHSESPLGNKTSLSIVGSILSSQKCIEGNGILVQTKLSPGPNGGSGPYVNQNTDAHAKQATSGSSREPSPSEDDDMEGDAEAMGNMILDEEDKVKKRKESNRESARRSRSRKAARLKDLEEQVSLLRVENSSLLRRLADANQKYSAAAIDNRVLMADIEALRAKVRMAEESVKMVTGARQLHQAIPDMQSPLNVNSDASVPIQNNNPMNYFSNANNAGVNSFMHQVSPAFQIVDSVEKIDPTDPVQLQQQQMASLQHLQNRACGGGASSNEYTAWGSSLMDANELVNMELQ
# Assay: protein-binding microarray (RPBM); PBS, 2% BSA, 51.3 ng/ul salmon testes DNA, 50 uM zinc acetate, 200 nM TF, 25 C, 1 h; high values mean tight binding
# Details: protein: recombinant; tags: N-terminal polyhistidine and DsRed monomer fusion (pET32a); chain copies: 2; label: CyDye5-dUTP incorporated in the synthesized complementary strand; 3' TTTTT single-stranded linker to array surface; dsDNA, one strand shown
# Outline: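 The binding signal for each feature is its fluorescence intensity in arbitrary units. An Axon 4000B scanner was used to read a custom Agilent array that had been made double-stranded with Cy5-dUTP primer extension, blocked with 2% BSA, incubated at 25 °C for 1 h with 200 nM protein in PBS, 2% BSA, salmon testes DNA and 50 µM zinc acetate, and washed. The protein was an N-terminal polyhistidine–DsRed transcription factor fusion from E. coli BL21-CodonPlus, purified on Ni–NTA.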
row,Sequence,binding signal
1,GCGCCACGTAGACGCCACGTCAGCCAAAACCGCCCTCCATCGGAGTCACCTAGTGCAG,52000 fluorescence intensity (a.u.)
2,TCCTCCTCCTCCTTAAACCCGTCACCATCGGTGGCCGTCCCGGAGTCACCTAGTGCAG,3180 fluorescence intensity (a.u.)
3,GCTGATGGTTTGTGTCGGGAGGGGAGGATTGAGGATGCTTCGGAGTCACCTAGTGCAG,3840 fluorescence intensity (a.u.)
4,GATAAATGACGACGCTAAATGTGTAGTTTTGTGATAAACGCGGAGTCACCTAGTGCAG,3680 fluorescence intensity (a.u.)
5,TACTTATGTAAAAGGATTGATTTAAGAGAATGGTCCAAACCGGAGTCACCTAGTGCAG,44100 fluorescence intensity (a.u.)
6,GCTTTGCTTCACTTACACTTACACCTCACCGTGCTCCCTCCGGAGTCACCTAGTGCAG,5310 fluorescence intensity (a.u.)
7,GTGCGGTGCACTTGACACACTGCAGGATCATGCCCTCTTTCGGAGTCACCTAGTGCAG,4220 fluorescence intensity (a.u.)
8,ACGCCAGCCATGTGTGTGTCTTGTCCGCGTACGTGCGCGCCGGAGTCACCTAGTGCAG,3460 fluorescence intensity (a.u.)
9,ATATCCGTGAGTGGGCTACAGAAAGCCCACTCACGCATATCGGAGTCACCTAGTGCAG,3150 fluorescence intensity (a.u.)
10,CCACTAGCCCAGCCCATGCCACCGCTACGTTACCTTCTCCCGGAGTCACCTAGTGCAG,3300 fluorescence intensity (a.u.)
11,GGCACCGCCGTCTCGCCGTCTCTATGTACAAGTCTCTATGCGGAGTCACCTAGTGCAG,3210 fluorescence intensity (a.u.)
12,GCCTCGTTTCCATCTCCGCCGCGCTCGCCGCGTTCACACTCGGAGTCACCTAGTGCAG,3390 fluorescence intensity (a.u.)
13,GGTCTGGCGATGGAGCCTCCCGCCGGAGACGCCGCGCCGTCGGAGTCACCTAGTGCAG,3540 fluorescence intensity (a.u.)
14,CCCAGACCCCACGTGTCCCCACTTCCCTGCGCCCTCCATGCGGAGTCACCTAGTGCAG,8590 fluorescence intensity (a.u.)
15,AGTGCCCAGCGGTGCCCGTGGACTGGACCTGACGGTGACGCGGAGTCACCTAGTGCAG,4230 fluorescence intensity (a.u.)
16,CCCCGACACCGCCGTCTATGGCAACCGGGACTTGGACGACCGGAGTCACCTAGTGCAG,19000 fluorescence intensity (a.u.)
17,GGGCCTACGTAACGCTCGCTTCTTTGCCTCCTCGTTCCCTCGGAGTCACCTAGTGCAG,3210 fluorescence intensity (a.u.)
18,TCCCCACCCATTGACGGCTGCCGTAGAGGTTTGGGTTGAGCGGAGTCACCTAGTGCAG,37700 fluorescence intensity (a.u.)
19,AGAATCCAAGAAGCGTTCAGTGGTGGGAGCCGGCAGCTGTCGGAGTCACCTAGTGCAG,3880 fluorescence intensity (a.u.)
20,ACCTCGGTGTGAGGAGGAGCTGCCGGTGGGTGTGGCGTGACGGAGTCACCTAGTGCAG,3270 fluorescence intensity (a.u.)
21,TGGTTCGTTTCTTCAGAAATCAACCTTTTAACCAGTGGCGCGGAGTCACCTAGTGCAG,6480 fluorescence intensity (a.u.)
22,CTTAGGCCAGCTGTATGCCGTGCGTGTATATAAGCACAGGCGGAGTCACCTAGTGCAG,4220 fluorescence intensity (a.u.)
23,CACAATCTTGCGATCCAGCTCATGTGGCGGACGGAATGAGCGGAGTCACCTAGTGCAG,3470 fluorescence intensity (a.u.)
24,AGTCCAGTTATAGGTGCTTGTGTCAACAGAGAGTCCTTTCCGGAGTCACCTAGTGCAG,3710 fluorescence intensity (a.u.)
25,GGTGAAGTGCAGGATCATGGCAGATGTCACCATTGCTGCTCGGAGTCACCTAGTGCAG,3880 fluorescence intensity (a.u.)
26,GTAGGAGATAATAGTTTCATAACACGTGTAAGCAGCATGTCGGAGTCACCTAGTGCAG,5870 fluorescence intensity (a.u.)
27,TATACTGTATATAGGTGGCTGACGTGTGGGCCCCGATCAGCGGAGTCACCTAGTGCAG,12700 fluorescence intensity (a.u.)

row,Sequence,binding signal
1,CGGAAATGATAAGGGCAGTTTCCGTCGGAACTCGAAATCGCGGAGTCACCTAGTGCAG,3250 fluorescence intensity (a.u.)
2,AACTGGACGTGAGATTTTCCAAGACCCACCTTAAATGCATCGGAGTCACCTAGTGCAG,27400 fluorescence intensity (a.u.)
3,CACCGTAGGGTCAATCTGGCCGTCCACGTGTCCCGCTGTGCGGAGTCACCTAGTGCAG,16400 fluorescence intensity (a.u.)
4,GCTTGTTTAGGTCCCAATCTTTTCTGTCATTCCAAAGACGCGGAGTCACCTAGTGCAG,17500 fluorescence intensity (a.u.)
5,CCGCCAAATGTTAGCCATAAACCCTGAGCCGTTCACGTTTCGGAGTCACCTAGTGCAG,3780 fluorescence intensity (a.u.)
6,CTCGCGCGACGTGGCCCCACCCAAGCGCATACGTGGCACCCGGAGTCACCTAGTGCAG,18900 fluorescence intensity (a.u.)
7,CTTCGCTGCCAGTCACAACACCCATCTTCGTCGCCGCCCACGGAGTCACCTAGTGCAG,4180 fluorescence intensity (a.u.)
8,AAAAGGACAAAAGGCTTTCTTTCAAGTAATTGTCATGACGCGGAGTCACCTAGTGCAG,3450 fluorescence intensity (a.u.)
9,TTATTATTATTATTATTATTATTATATAACCAATATCTTTCGGAGTCACCTAGTGCAG,3310 fluorescence intensity (a.u.)
10,GTAGTGATGTCACTATTTAATAGTTGTATAATAAATACTCCGGAGTCACCTAGTGCAG,17800 fluorescence intensity (a.u.)
11,AGAATAGTGTTACACACACGCGTACTCCGTGCCTTCCCGTCGGAGTCACCTAGTGCAG,3280 fluorescence intensity (a.u.)
12,ATTCACAGGCCTTTCTTAATTAAAACGGTAGATGGAGCAACGGAGTCACCTAGTGCAG,28400 fluorescence intensity (a.u.)
13,GATGTGCTGGTGTCCGACGCGCCGGCTGACGAGGCTGCAACGGAGTCACCTAGTGCAG,3400 fluorescence intensity (a.u.)
14,TGAGAAGTGAGAACCCAATGTTGGCTGTGTTTAGATCCAACGGAGTCACCTAGTGCAG,7100 fluorescence intensity (a.u.)
15,ATGTGCATACTACTACTTCTTACGTAGCATAGTGATTTGTCGGAGTCACCTAGTGCAG,3150 fluorescence intensity (a.u.)
16,TGAGGGCCGGGGCAGCCTGTTGAATCACCAGGGATTTGCACGGAGTCACCTAGTGCAG,3190 fluorescence intensity (a.u.)
17,TCTTCTGGTAATGGAGATGGAGATTACCAAAACTCAATACCGGAGTCACCTAGTGCAG,17500 fluorescence intensity (a.u.)
18,AGAACACATAACTAGCATATCAGGGCCTTCCAAGACTGCTCGGAGTCACCTAGTGCAG,26500 fluorescence intensity (a.u.)
19,TCTCTCTCTCTCTCTCTCTCTCGCGCCCCACCCAGATCTGCGGAGTCACCTAGTGCAG,3600 fluorescence intensity (a.u.)
20,CTGGTGCATACACAGTGGGTTTGAGAATGACATGGACGCTCGGAGTCACCTAGTGCAG,4890 fluorescence intensity (a.u.)
21,CAATCCCACCTCGCGCGATGACTCCGCACCCGCCCCACCTCGGAGTCACCTAGTGCAG,7260 fluorescence intensity (a.u.)
22,CACGTGTTTTCTCGATGTCCACGTGGTGATGTGGAATTGTCGGAGTCACCTAGTGCAG,14800 fluorescence intensity (a.u.)
23,CACTTACATGGCACATCACTCCAGCTTTACCAGCATCATTCGGAGTCACCTAGTGCAG,3400 fluorescence intensity (a.u.)
24,CACCAGAGGATGGTCTCTAAGTCAATGTGACGTGCAATCCCGGAGTCACCTAGTGCAG,4140 fluorescence intensity (a.u.)
25,CCAGGCCGTCCCGGATCCACGCGCCCCGCGTGGCGGCGTCCGGAGTCACCTAGTGCAG,3590 fluorescence intensity (a.u.)
26,ATCGCACGGTACGAGCACATGACACGGACGGACTGGCTCACGGAGTCACCTAGTGCAG,3160 fluorescence intensity (a.u.)
27,ATGTAATGAACCCAATCGTCTTGGAACAGCTCTCGCCATGCGGAGTCACCTAGTGCAG,4620 fluorescence intensity (a.u.)

# Two successive records out of the list so far, for reference:
row,Sequence,binding signal
2,TCCTCCTCCTCCTTAAACCCGTCACCATCGGTGGCCGTCCCGGAGTCACCTAGTGCAG,3180 fluorescence intensity (a.u.)
3,GCTGATGGTTTGTGTCGGGAGGGGAGGATTGAGGATGCTTCGGAGTCACCTAGTGCAG,3840 fluorescence intensity (a.u.)
